Experimental data: US20060051835A1, “Pael receptor, cells and animal expressing pael receptor and method of screning remedy for parkinson's disease” (priority 2001, published 2006)
These are yes or no findings as the source states them, for the method shown. Binding seen in cells or lysates may run through a third protein. Some entries that bind do so weakly or less than the wild type. For some of these results: Sequences can lack the tags named with a protein.

Chains of the proteins cited; added tags and fusions are not shown. Residues count along the entry.
UniProt P60604, residues 2-165: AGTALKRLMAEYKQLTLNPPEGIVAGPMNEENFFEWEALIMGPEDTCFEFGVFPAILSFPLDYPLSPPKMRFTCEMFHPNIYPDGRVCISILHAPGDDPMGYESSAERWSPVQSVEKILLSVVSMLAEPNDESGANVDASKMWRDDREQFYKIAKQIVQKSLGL
UniProt O60260: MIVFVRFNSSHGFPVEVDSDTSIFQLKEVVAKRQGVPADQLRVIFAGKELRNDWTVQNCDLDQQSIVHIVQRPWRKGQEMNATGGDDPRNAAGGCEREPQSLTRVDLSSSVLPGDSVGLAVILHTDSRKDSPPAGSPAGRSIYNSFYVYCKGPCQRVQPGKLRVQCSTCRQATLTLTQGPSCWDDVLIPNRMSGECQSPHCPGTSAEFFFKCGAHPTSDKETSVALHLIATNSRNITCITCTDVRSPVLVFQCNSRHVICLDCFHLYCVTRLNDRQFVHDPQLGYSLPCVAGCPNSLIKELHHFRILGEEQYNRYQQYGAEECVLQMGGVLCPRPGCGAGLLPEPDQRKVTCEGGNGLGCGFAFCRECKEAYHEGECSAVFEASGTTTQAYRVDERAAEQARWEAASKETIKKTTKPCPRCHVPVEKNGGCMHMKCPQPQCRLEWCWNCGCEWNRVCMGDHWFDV

Tests used:
Myc-UBC7 (human) [1] = biological target: Myc-UBC7 (human) (UniProt P60604); assay: summary of the co-immunoprecipitation of FIG. 5
Myc-tagged UBC6 (human) [2] = biological target: T1, Myc-tagged UBC6 (human) (UniProt Q9Y385); assay: summary of the co-immunoprecipitation of FIG. 5
T1 sequence (looked up): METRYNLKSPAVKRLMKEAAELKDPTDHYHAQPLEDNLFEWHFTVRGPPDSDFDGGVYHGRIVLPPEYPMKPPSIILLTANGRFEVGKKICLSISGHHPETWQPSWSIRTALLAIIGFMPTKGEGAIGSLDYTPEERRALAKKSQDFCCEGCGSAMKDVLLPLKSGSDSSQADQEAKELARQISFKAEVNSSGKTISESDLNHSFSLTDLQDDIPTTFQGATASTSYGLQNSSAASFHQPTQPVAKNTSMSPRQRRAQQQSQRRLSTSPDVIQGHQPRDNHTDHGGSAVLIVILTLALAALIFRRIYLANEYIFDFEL

Myc-UBC7 (human) [3] = biological target: Myc-UBC7 (human) (UniProt P60604); assay: co-immunoprecipitation from 293T cells (FLAG-IP, anti-Myc Western blot)
Myc-tagged UBC6 (human) [4] = biological target: T1, Myc-tagged UBC6 (human); assay: as above
Myc-UBC7 (human) [5] = biological target: Myc-UBC7 (human) (UniProt P60604); assay: co-immunoprecipitation from 293T cells (FIG. 5)
Myc-tagged UBC6 (human) [6] = biological target: T1, Myc-tagged UBC6 (human); assay: co-immunoprecipitation from 293T cells (FIG. 5)
[7] = biological target: T2, human Pael receptor (human) (UniProt O15354); assay: summary of the filing's two-hybrid and co-immunoprecipitation experiments
T2 sequence: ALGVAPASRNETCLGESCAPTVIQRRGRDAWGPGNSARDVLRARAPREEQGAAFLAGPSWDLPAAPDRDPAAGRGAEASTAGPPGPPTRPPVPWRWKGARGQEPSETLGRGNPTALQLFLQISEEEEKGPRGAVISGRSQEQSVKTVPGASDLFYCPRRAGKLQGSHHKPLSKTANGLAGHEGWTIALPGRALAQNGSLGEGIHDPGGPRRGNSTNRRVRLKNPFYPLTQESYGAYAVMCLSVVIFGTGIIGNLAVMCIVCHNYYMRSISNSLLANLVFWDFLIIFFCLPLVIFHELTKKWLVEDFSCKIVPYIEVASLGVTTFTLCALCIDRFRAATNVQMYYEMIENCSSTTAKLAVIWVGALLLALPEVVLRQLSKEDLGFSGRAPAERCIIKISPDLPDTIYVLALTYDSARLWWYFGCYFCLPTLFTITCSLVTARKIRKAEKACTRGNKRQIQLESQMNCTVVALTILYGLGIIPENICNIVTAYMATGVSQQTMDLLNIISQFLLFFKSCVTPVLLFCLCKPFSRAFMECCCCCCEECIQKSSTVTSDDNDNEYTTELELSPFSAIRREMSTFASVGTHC

[8] = biological target: T2, human Pael receptor (human); assay: co-immunoprecipitation from human brain and SH-SY5Y lysate with anti-Parkin antisera, Western blot with anti-Pael receptor monoclonal antibodies
[9] = biological target: T2, human Pael receptor (human); assay: summary of the co-immunoprecipitation experiments of Examples 2 to 4
[10] = biological target: T3, human Pael receptor-FLAG (human) (UniProt O15354); assay: co-immunoprecipitation from 293T lysate with anti-Parkin polyclonal antibodies, Western blot
T3 sequence: T2 sequence

Measured: binding

FLAG-tagged Parkin (Wild type) (from UniProt O60260 1-465) (enzyme)
binds: Myc-UBC7 (human) [1] | Myc-tagged UBC6 (human) [2] | Myc-UBC7 (human) [3] | Myc-tagged UBC6 (human) [4] | Myc-UBC7 (human) [5] | Myc-tagged UBC6 (human) [6]

human Parkin (from UniProt O60260 1-465) (enzyme)
binds: [7] | [8] | [9] | [10]
